Test results reported in patent US20250263439A1 (REGENTS OF THE UNIVERSITY OF MICHIGAN, priority 2018, published 2025).

Tests used:
[1] = tested on: Barrett's neoplasia (HGD and EAC); assay: Confocal microscopy of human esophageal specimens ex vivo; conditions: for AUC (ROC curve): detection of Barrett's neoplasia; for sensitivity (ROC curve) / specificity (ROC curve): detection of Barrett's neoplasia (HGD and EAC) versus pathology, heterodimer at T/B ratio of 5.9
Description: The fluorescence intensities from the human esophageal specimens were fit according to 4 histological classifications, including squamous (SQ), Barrett's esophagus (BE), high-grade dysplasia (HGD), and esophageal adenocarcinoma (EAC), and used a one-way ANOVA and used Tukey's multiple comparisons. Co-localization of peptide and antibody binding was evaluated using Pearson's correlation coefficient.
Using confocal microscopy, specific heterodimer binding to Barrett's neoplasia was validated on human specimens ex vivo. Formalin-fixed, paraffin-embedded (FFPE) specimens of human esophagus were obtained from the archived tissue bank in the Department of Pathology, University of Michigan. The tissues were cut into […], deparaffinized, and rehydrated using standard conditions. Two-step acidic and protease-based antigen retrieval was performed. The sections were blocked with protein serum for 10 min at RT followed by rinsing with PBS, and then incubated with the heterodimer (0.5 μM) for ten min in dark conditions at RT. The sections were then washed for three min 3× with PBS and further incubated sequentially with 1:200 dilution of EGFR monoclonal antibody (H11, #MA5-13070, Invitrogen) and 1:500 goat anti-mouse IgG (H+L) AF-568-labeled secondary antibody (#A-11004, Thermo Fisher Scientific), 1:500 dilution of ErbB2 primary antibody (#29D8, rabbit monoclonal antibody #2165S, Cell Signaling Inc), and 1:1000 goat anti-rabbit IgG (H+L) AF-488-labeled secondary antibody (#A11008, Life Technologies Corp). Each antibody was incubated for 1 hour at RT. Sections were washed with TBST 3× and mounted with Prolong Gold reagent containing DAPI (Invitrogen) using #1 cover glass ([…]). Confocal fluorescence microscopy was performed using DAPI, AF488, AF568 and Cy5.5 filter sets. Image quantification was performed by placing 3 boxes with dimensions of 20×20 μm^2 completely within cells found in the epithelium. Mean fluorescence intensities were measured using custom Matlab software (Mathworks). Regions of saturated intensities were avoided.

[2] = general procedure: Fmoc solid-phase peptide synthesis; rink amide MBHA resin; HBTU/HOBt; conditions: whole synthesis
[3] = tested on: EGFR and HER2 on SKBr3 cells; assay: Co-localization of IRDye800 heterodimer and antibody binding on SKBr3 cells; format: cell-based, human; conditions: merged image
[4] = tested on: OE33 human xenograft tumor; assay: Immunofluorescence of OE33 xenograft tumor sections ex vivo
Description: Immunofluorescence was performed to validate target expression in sections of OE33 human xenograft tumor ex vivo.

| Compound | AUC (ROC curve) [1] | sensitivity (ROC curve) [1] [%] | specificity (ROC curve) [1] [%] | isolated yield [2] [%] | final HPLC purity ([2]; 280 nm) [%] | further results |
| --- | --- | --- | --- | --- | --- | --- |
| KSP*-GGGSK-Cy5.5 (KSPNPRF; GGGSK linker, Cy5.5) [KSP*-Cy5.5] | 0.91 | 85 | 79 | – | – | – |
| QRH*-GGGSK-Cy5.5 (QRHKPRE; GGGSK linker, Cy5.5) | – | – | – | 61.8 | >95 | – |
| CC1(C)C(=CC=C2CCCC(C=CC3=[N+](CCCCCC(=O)NCCN4C(=O)CC(SC[C@H](NC(=O)[C@H](CCCCNC(=O)COCCOCCOCCNC(=O)[C@H](CCC(=O)O)NC(=O)[C@H](CCCNC(=N)N)NC(=O)[C@@H]5CCCN5C(=O)[C@H](CCCCN)NC(=O)[C@H](Cc5c[nH]cn5)NC(=O)[C@H](CCCNC(=N)N)NC(=O)[C@@H](N)CCC(N)=O)NC(=O)COCCOCCOCCNC(=O)[C@H](Cc5ccccc5)NC(=O)[C@H](CCCNC(=N)N)NC(=O)[C@@H]5CCCN5C(=O)[C@H](CC(N)=O)NC(=O)[C@@H]5CCCN5C(=O)[C@H](CO)NC(=O)[C@@H](N)CCCCN)C(N)=O)C4=O)c4ccc(S(=O)(=O)O)cc4C3(C)C)=C2Oc2ccc(S(=O)(=O)O)cc2)N(CCCCS(=O)(=O)[O-])c2ccc(S(=O)(=O)O)cc21 (some centres unmarked) [QRH*-KSP*-E3-IRDye800] (I: H-KSPNPRF[AEEEA]KC(X1)-NH2 / II: H-QRHKPRE[AEEEA]; amide I:9-II:C) | – | – | – | – | – | Pearson's correlation coefficient ρ with anti-EGFR [3]: 0.58; Pearson's correlation coefficient ρ with anti-HER2 [3]: 0.65; co-localization ρ with anti-EGFR [4]: 0.45; co-localization ρ with anti-HER2 [4]: 0.62 |
| QRH*-GGGSK-Cy5.5 (QRHKPRE; GGGSK linker, Cy5.5) [QRH*-Cy5.5] | 0.79 | 74 | 69 | – | – | – |
| heterodimer of QRHKPRE (SEQ ID NO: 1) and KSPNPRF (SEQ ID NO: 2) with E3 (triethyleneglycol) linker, Cy5.5 label [QRH*-KSP*-E3-Cy5.5] | 0.95 | 88 | 87 | – | – | – |
| QRH*-KSP*-Hex-Cy5.5 | – | – | – | 38.3 | >95 | – |
| KSP*-GGGSK-Cy5.5 (KSPNPRF; GGGSK linker, Cy5.5) | – | – | – | 50.9 | >95 | final HPLC purity ([2]; Analytical HPLC with C18 column at 280 nm): >98% |

Bridge positions count the residues as written; N and C are the ends. Square brackets hold non-standard residues; d marks the D form. Peptide text beside a SMILES is read from it. I, II: the chains in the order shown. * marks the point of attachment. X1 = CC1(C)C(=CC=C2CCCC(C=CC3=[N+](CCCCCC(=O)NCCN4C(=O)CC(*)C4=O)c4ccc(S(=O)(=O)O)cc4C3(C)C)=C2Oc2ccc(S(=O)(=O)O)cc2)N(CCCCS(=O)(=O)[O-])c2ccc(S(=O)(=O)O)cc21; AEEEA = NCCOCCOCCOCC(=O)O
